No constants are given. Whether binding was seen depends on the method and setting. For some assays here: In cells and extracts the contact can be indirect. Some results given as binding are weak or reduced against the parent protein; the word gives no strength. For some assays here: Where a sequence is shown, tags or fusion partners need not be part of it.
What was measured:
Settings in all cases: remark: other sources report otherwise
[1] = target: T7-RelA, Q04206; assay: co-immunoprecipitation from co-transfected COS-7 cells
[2] = target: T7-RelA, Q04206; assay: co-immunoprecipitation (FIG. 3B)
[3] = target: T7-RelA, Q04206; assay: co-immunoprecipitation from transfected COS7 cells (anti-T7 IP, anti-Flag blot)
[4] = target: T7-RelA, Q04206; assay: co-immunoprecipitation (FIG. 3F)
[5] = target: endogenous RelA of untransfected HeLa cells (human), Q04206; assay: co-immunoprecipitation from HeLa whole cell lysates (anti-HDAC3 IP, anti-RelA blot)
[6] = target: endogenous RelA of untransfected HeLa cells (human), Q04206; assay: co-immunoprecipitation (FIG. 3G)
[7] = target: endogenous RelA of untransfected HeLa cells (human), Q04206; assay: co-immunoprecipitation of endogenous proteins from untransfected HeLa cells
[8] = target: T1, deacetylated T7-RelA (from 293T cells co-transfected with p300 and HDAC3), Q04206; assay: GST pull-down of T7-RelA from 293T lysates, anti-T7 blot
[9] = target: T1, deacetylated T7-RelA (from 293T cells …); assay: GST pull-down (FIG. 4A)
[10] = target: T7-RelA, Q04206; assay: GST pull-down of T7-RelA from 293T lysate without p300 (lane 2, reference), anti-T7 blot
[11] = target: full length RelA (mammalian two-hybrid construct), Q04206; assay: mammalian two-hybrid assay

B1: HDAC3-Flag, O15379 1-428 (enzyme, UniProt O15379 1-428, looked up, not shown: small tags and cut ends)
chain: MAKTVAYFYDPDVGNFHYGAGHPMKPHRLALTHSLVLHYGLYKKMIVFKPYQASQHDMCRFHSEDYIDFLQRVSPTNMQGFTKSLNAFNVGDDCPVFPGLFEFCSRYTGASLQGATQLNNKICDIAINWAGGLHHAKKFEASGFCYVNDIVIGILELLKYHPRVLYIDIDIHHGDGVQEAFYLTDRVMTVSFHKYGNYFFPGTGDMYEVGAESGRYYCLNVPLRDGIDDQSYKHLFQPVINQVVDFYQPTCIVLQCGADSLGCDRLGCFNLSIRGHGECVEYVKSFNIPLLVLGGGGYTVRNVARCWTYETSLLVEEAISEELPYSEYFEYFAPDFTLHPDVSTRIENQNSRQYLDQIRQTIFENLKMLNHAPSVQIHDVPADLLTYDRTDEADAEERGPEENYSRPEAPNEFYDGDHDNDKESDVEI
[1]
  binding: binds
[2]
  binding: binds
[3]
  binding: binds
[4]
  binding: binds

B2: endogenous HDAC3 of untransfected HeLa cells, O15379 1-428 (enzyme, human, UniProt O15379 1-428, looked up)
chain: MAKTVAYFYDPDVGNFHYGAGHPMKPHRLALTHSLVLHYGLYKKMIVFKPYQASQHDMCRFHSEDYIDFLQRVSPTNMQGFTKSLNAFNVGDDCPVFPGLFEFCSRYTGASLQGATQLNNKICDIAINWAGGLHHAKKFEASGFCYVNDIVIGILELLKYHPRVLYIDIDIHHGDGVQEAFYLTDRVMTVSFHKYGNYFFPGTGDMYEVGAESGRYYCLNVPLRDGIDDQSYKHLFQPVINQVVDFYQPTCIVLQCGADSLGCDRLGCFNLSIRGHGECVEYVKSFNIPLLVLGGGGYTVRNVARCWTYETSLLVEEAISEELPYSEYFEYFAPDFTLHPDVSTRIENQNSRQYLDQIRQTIFENLKMLNHAPSVQIHDVPADLLTYDRTDEADAEERGPEENYSRPEAPNEFYDGDHDNDKESDVEI
[5]
  binding: binds
[6]
  binding: binds
[7]
  binding: binds

B3: GST-IκBα, P25963 1-317 (protein, UniProt P25963 1-317, looked up, not shown: a dimerising Fc or GST)
chain: MFQAAERPQEWAMEGPRDGLKKERLLDDRHDSGLDSMKDEEYEQMVKELQEIRLEPQEVPRGSEPWKQQLTEDGDSFLHLAIIHEEKALTMEVIRQVKGDLAFLNFQNNLQQTPLHLAVITNQPEIAEALLGAGCDPELRDFRGNTPLHLACEQGCLASVGVLTQSCTTPHLHSILKATNYNGHTCLHLASIHGYLGIVELLVSLGADVNAQEPCNGRTALHLAVDLQNPDLVSLLLKCGADVNRVTYQGYSPYQLTWGRPSTRIQQQLGQLTLENLQMLPESEDEESYDTESEFTEFTEDELPYDDCVFGGQRLTL
[8]
  binding: binds
[9]
  binding: binds
[10]
  binding: binds

B4: HDAC3 (mammalian two-hybrid construct), O15379 1-428 (enzyme, UniProt O15379 1-428, looked up, not shown: large carriers)
chain: MAKTVAYFYDPDVGNFHYGAGHPMKPHRLALTHSLVLHYGLYKKMIVFKPYQASQHDMCRFHSEDYIDFLQRVSPTNMQGFTKSLNAFNVGDDCPVFPGLFEFCSRYTGASLQGATQLNNKICDIAINWAGGLHHAKKFEASGFCYVNDIVIGILELLKYHPRVLYIDIDIHHGDGVQEAFYLTDRVMTVSFHKYGNYFFPGTGDMYEVGAESGRYYCLNVPLRDGIDDQSYKHLFQPVINQVVDFYQPTCIVLQCGADSLGCDRLGCFNLSIRGHGECVEYVKSFNIPLLVLGGGGYTVRNVARCWTYETSLLVEEAISEELPYSEYFEYFAPDFTLHPDVSTRIENQNSRQYLDQIRQTIFENLKMLNHAPSVQIHDVPADLLTYDRTDEADAEERGPEENYSRPEAPNEFYDGDHDNDKESDVEI
[11]
  binding: binds
